Measurements reported in paper doi:10.1101/2022.09.29.510157.
Results are given in words; binding and its absence hold for the method and conditions named. Some results given as binding are weak or reduced against the parent protein; the word gives no strength. One block for each binder: values may come before it.

By UniProt entry, the sequences of proteins in these tests, tags left out.
UniProt Q3MHM5: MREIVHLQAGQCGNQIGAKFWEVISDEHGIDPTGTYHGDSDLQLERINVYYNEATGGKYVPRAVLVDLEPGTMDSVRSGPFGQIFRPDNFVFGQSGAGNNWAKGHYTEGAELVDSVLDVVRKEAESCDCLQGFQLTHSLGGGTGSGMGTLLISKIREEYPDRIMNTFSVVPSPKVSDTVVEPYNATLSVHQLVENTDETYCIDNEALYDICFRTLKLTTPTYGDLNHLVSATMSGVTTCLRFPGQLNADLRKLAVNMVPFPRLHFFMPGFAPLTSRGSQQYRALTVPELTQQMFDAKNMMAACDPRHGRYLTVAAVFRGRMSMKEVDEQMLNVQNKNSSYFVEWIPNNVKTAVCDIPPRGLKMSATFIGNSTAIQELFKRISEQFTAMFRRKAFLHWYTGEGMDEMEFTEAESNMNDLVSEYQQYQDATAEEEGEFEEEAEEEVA
UniProt A6H782: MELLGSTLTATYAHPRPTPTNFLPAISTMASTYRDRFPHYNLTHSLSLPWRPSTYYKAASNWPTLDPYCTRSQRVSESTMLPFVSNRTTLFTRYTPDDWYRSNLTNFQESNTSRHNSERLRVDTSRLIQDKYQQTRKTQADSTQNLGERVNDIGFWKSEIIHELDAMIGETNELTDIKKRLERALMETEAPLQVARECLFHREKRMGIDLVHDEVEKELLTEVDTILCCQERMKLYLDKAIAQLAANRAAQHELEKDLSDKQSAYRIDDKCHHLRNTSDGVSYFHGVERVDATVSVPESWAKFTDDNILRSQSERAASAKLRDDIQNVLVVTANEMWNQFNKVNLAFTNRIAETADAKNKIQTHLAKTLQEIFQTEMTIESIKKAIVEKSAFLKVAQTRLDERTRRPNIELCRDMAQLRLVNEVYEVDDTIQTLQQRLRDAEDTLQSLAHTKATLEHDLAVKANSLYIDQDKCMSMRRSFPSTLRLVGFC

Experiments:
Experiment in all cases: cryo-EM structure
[1] = target: β-tubulin (TUBB4B) (bovine (endogenous in bovine sperm)) (UniProt Q3MHM5)
[2] = target: T1, Tektin-2 (bovine (endogenous in bovine sperm)) (UniProt Q2T9Q6)
T1 sequence: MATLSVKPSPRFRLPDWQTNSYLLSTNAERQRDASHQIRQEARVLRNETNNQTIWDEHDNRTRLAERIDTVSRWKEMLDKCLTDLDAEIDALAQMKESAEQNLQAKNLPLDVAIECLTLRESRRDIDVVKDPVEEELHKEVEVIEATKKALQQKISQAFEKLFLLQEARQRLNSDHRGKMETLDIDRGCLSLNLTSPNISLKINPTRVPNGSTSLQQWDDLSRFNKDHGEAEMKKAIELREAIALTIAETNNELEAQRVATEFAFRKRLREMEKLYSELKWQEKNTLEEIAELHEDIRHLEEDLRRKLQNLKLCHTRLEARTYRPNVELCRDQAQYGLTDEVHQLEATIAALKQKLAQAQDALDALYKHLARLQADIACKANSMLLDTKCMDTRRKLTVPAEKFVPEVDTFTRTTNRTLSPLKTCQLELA

[3] = target: Tektin-3 (bovine (endogenous in bovine sperm)) (UniProt A6H782)
[4] = target: T2, Tektin-5 (bovine (endogenous in bovine sperm)) (UniProt Q2YDI7)
T2 sequence: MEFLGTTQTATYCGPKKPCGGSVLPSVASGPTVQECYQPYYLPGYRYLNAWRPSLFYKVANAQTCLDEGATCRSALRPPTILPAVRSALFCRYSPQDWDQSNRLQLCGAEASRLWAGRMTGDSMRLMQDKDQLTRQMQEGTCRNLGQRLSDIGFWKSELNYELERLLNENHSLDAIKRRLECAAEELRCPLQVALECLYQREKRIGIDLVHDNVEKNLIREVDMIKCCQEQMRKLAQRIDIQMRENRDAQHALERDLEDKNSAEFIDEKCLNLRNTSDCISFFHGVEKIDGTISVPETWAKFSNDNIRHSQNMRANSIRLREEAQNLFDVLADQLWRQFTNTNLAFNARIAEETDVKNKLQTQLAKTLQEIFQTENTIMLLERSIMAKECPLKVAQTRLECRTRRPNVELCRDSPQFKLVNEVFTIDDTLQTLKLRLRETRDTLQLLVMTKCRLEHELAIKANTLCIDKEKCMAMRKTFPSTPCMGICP

- binding [1]: binds
B1: ENKUR (protein, UniProt E1B836 1-259)
chain: MVAMDPTGPSESIYNLIPSDWKEPPQPPRYVSIFKATVKDDMQKFKTAMKTMGPAKLEVPSPKDFLKKHSKEKILPPKKKFEWNERRKPPVPLRTDHPVMGIQSEKNFINTNAADVIMGVAKKPKPIYVDKRTGDKHDLETSGLVPKYINKKDYGVTPEYICKRNEEVKKAQEEYDNYIQENLRKAAMKRLSDEEREAVLQGLKKNWEEVHKEFQSLSVFIDSIPKKIRKQKLEEEMKQLEHDIGVLEKHKVIYIANKK

- binding [2]: binds
- binding [3]: binds
B2: DUSP21 (protein, UniProt F6QJZ9 1-196)
chain: MTTPLCPFPIQAVRQPAAHGLSQITKSLYLSDAVAAKDKAMLSTNHITTVINVSMEATDTFLEDIQYVKVPLADAPNSRLYDFFDFIADHIHSVEMKQGRTLLHCAAGVSRSATFCLAYLMKYHSMSLLDAHTWTKSCRPTIRPNNGFWEQLIYYEFKLFSKNTVHMISSSMGMIPDVYEKEICLMTLMGVIPDSS

- binding [3]: binds
- binding [4]: binds
B3: Tektin-2 (protein, UniProt Q2T9Q6 1-430)
chain: T1 sequence
